From the supplement of paper PMC10849652
The other results are listed elsewhere or left out.

Amino acid sequences for entries named in this document (tags omitted). A change or cut given only in a name is not applied to a line headed by its entry.
UniProt Q9H3S7: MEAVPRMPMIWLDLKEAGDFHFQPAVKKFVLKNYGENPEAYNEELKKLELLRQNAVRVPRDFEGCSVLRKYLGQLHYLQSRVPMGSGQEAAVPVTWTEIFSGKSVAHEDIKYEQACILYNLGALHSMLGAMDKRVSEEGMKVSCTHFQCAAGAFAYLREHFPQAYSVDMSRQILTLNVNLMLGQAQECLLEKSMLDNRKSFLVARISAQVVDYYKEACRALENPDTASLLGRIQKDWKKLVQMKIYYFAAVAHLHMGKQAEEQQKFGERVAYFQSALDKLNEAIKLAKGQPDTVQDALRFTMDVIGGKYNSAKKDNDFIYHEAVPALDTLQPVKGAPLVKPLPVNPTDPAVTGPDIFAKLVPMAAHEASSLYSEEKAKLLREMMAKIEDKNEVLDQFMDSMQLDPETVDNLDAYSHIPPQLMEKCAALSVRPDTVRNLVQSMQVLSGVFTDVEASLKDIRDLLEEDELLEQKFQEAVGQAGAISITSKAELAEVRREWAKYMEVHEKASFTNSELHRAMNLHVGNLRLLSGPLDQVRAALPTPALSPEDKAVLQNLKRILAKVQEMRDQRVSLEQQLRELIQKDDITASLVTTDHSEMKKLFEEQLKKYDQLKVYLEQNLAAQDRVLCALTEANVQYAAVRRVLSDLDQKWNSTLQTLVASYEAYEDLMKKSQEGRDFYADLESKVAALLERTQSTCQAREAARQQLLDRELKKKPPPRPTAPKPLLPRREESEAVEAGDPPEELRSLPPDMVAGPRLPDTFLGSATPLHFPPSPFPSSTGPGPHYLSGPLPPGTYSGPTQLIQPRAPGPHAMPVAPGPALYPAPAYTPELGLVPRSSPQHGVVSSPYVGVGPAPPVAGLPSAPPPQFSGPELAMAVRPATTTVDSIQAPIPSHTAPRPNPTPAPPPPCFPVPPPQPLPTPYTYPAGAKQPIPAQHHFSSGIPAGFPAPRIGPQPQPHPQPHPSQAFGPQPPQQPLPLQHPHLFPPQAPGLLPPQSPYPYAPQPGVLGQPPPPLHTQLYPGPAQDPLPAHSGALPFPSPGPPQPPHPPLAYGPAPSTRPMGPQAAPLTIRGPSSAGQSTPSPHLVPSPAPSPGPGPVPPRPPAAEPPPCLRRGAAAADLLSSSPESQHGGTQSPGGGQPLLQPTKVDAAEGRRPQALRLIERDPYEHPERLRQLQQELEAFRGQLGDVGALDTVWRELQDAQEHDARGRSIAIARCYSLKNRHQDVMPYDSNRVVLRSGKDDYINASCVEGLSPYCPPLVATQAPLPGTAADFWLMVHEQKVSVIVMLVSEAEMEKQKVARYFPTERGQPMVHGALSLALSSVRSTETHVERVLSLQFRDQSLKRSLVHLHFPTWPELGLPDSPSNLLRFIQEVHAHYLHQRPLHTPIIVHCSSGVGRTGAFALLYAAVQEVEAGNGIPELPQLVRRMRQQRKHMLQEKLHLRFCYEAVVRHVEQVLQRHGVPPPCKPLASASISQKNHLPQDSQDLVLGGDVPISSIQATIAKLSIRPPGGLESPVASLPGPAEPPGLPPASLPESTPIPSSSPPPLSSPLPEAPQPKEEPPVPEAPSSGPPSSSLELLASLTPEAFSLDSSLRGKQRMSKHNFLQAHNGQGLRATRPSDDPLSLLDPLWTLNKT
UniProt O43242, whole entry, looked up: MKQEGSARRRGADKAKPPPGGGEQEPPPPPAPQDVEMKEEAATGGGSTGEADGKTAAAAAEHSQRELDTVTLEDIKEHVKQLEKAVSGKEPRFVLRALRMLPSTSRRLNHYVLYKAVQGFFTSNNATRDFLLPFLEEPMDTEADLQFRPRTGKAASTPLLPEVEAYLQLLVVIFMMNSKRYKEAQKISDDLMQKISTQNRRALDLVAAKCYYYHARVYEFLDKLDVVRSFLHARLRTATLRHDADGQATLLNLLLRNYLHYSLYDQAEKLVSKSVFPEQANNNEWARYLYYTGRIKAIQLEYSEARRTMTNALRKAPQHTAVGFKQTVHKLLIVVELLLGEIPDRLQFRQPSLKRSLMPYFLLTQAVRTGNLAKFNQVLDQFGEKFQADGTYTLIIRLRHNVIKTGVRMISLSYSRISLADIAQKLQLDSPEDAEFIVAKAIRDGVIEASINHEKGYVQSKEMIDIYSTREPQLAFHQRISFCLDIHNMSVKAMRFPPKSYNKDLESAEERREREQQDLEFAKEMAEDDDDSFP
UniProt O14818: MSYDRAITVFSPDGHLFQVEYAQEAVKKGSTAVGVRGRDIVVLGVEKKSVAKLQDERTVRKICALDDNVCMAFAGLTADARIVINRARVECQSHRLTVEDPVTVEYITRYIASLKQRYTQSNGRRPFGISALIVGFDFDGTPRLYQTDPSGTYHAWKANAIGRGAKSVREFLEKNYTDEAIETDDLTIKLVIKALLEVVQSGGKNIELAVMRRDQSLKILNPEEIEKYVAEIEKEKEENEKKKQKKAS
UniProt P07602: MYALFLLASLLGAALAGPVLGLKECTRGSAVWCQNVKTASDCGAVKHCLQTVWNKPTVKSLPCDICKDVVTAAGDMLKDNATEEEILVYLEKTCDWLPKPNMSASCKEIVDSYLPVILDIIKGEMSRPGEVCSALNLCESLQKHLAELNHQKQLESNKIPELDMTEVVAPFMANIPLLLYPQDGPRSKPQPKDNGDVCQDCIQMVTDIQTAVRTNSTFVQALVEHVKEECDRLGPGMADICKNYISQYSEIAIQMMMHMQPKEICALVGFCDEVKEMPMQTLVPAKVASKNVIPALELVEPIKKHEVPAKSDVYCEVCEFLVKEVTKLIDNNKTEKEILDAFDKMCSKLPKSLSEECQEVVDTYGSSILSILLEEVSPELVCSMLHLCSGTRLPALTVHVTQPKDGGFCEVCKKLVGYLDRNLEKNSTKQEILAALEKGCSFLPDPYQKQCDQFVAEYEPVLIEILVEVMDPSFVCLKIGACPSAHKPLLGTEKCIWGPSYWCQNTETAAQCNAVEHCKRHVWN
UniProt P79522: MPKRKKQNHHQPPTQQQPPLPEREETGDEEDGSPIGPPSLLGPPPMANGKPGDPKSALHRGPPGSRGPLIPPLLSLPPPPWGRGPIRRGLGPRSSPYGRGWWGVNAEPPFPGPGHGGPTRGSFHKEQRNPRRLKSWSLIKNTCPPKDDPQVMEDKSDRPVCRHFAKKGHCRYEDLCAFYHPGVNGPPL

Experiments:
Experiment in all cases: log2 fold change, soluble protein after heating vs DMSO (PISA); higher = thermal stabilisation; K562 lysate, 10 uM; active = over 0.2 and 3.5 SD of the protein, either way, in both replicates (recomputed)
vorinostat = compound: O=C(CCCCCCC(=O)Nc1ccccc1)NO [vorinostat]
Summary of the method: (§1)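 Soluble protein was defined as the supernatant remaining after 21,000xg for 90 min, following pooling of heated aliquots and adjustment to 0.5% NP-40 at 4°C. Before that, crude K562 extract at 1 mg/mL protein in PBS pH 7.4 with 1 mM MgCl2 was treated with 10 μM compound for 30 min and heated for 3 min across 48°C-58°C. Quantification used TMTpro 16plex LC-MS/MS with channel sums equalised, and values are log-two fold changes in thermal stability relative to solvent controls from duplicates.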

silmitasertib = compound: O=C(O)c1ccc2c(c1)nc(Nc1cccc(Cl)c1)c1ccncc12 [silmitasertib]
Summary of the method: as §1

[1] = compound: O=C1NC(=O)C(c2cnc3ccccn23)=C1c1cn2c3c(cc(F)cc13)CN(C(=O)N1CCCCC1)CC2
Summary of the method: as §1

[2] = compound: NCC(=O)Nc1ccc(-n2nc(C(F)(F)F)cc2-c2ccc3c(ccc4ccccc43)c2)cc1
Summary of the method: as §1

entospletinib = compound: c1cn2cc(-c3ccc4cn[nH]c4c3)nc(Nc3ccc(N4CCOCC4)cc3)c2n1 [entospletinib]
Summary of the method: as §1

Measured: log2 fold change

PSIP1 (UniProt V9GYT7)
inactive: vorinostat 0.197 | silmitasertib -0.084 | [1] 0.022

PTPN23 (UniProt Q9H3S7)
inactive: [2] -0.011 | silmitasertib -0.007 | [1] 0 | entospletinib 0.009
active: vorinostat -0.266

PSMD3 (UniProt O43242)
inactive: [2] -0.012 | vorinostat -0.002 | silmitasertib -0.003 | [1] -0.012 | entospletinib 0

Quoted from the results shown (2 entries):
PSIP1 (UniProt V9GYT7)
inactive: vorinostat 0.197 | silmitasertib -0.084 | [1] 0.022

PTPN23 (UniProt Q9H3S7)
inactive: [2] -0.011 | silmitasertib -0.007 | [1] 0 | entospletinib 0.009
active: vorinostat -0.266

Further records

PSMA7 isoform 2 (UniProt O14818)
inactive: [1] -0.314 | entospletinib -0.057

PSMA7 (UniProt O14818)
inactive: [2] -0.011 | vorinostat 0.113 | silmitasertib -0.026 | [1] -0.023 | entospletinib 0.004

PTPA (UniProt A6PVN8)
inactive: entospletinib 0.212

PSAP isoform 3 (UniProt P07602)
inactive: [2] -0.021 | vorinostat 0.108 | silmitasertib -0.007 | [1] 0.013 | entospletinib -0.066

PRR3 (UniProt P79522)
inactive: [2] 0.228 | [1] -0.018

PSMA7 (UniProt H0Y586)
inactive: vorinostat 0.015 | silmitasertib -0.167 | [1] 0.057
